In assay [1] the target is T1, GDF-11 (UniProt O95390).
T1 sequence (looked up): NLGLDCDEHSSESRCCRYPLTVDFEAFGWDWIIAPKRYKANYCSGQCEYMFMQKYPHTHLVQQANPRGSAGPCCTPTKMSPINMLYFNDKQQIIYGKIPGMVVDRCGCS
The assay is described as follows: SPR (BiaCore CM5 chip), GDF-11 immobilized by amine coupling, Caronte-Fc injected at 200 ug/ml. (In general: SPR reads the build-up and loss of mass on a sensor chip optically.)

Assay [2] addresses T1, GDF-11. The assay is described as follows: SPR (BiaCore CM5 chip), GDF-11 immobilized by amine coupling, Caronte injected at 200 ug/ml.

No constants are given. Whether binding was seen depends on the method and setting. Some binding calls cover weakened binding; strength is not graded here. Sequences can lack the tags named with a protein.

B1: Caronte-Fc (Cerberus homolog from Gallus gallus) (Fc fusion, not shown: a dimerising Fc or GST; small tags and cut ends)
chain: QPDSQQRKRRPLQHLFYLDRNLLESQSFHELVGENPVGVKETQEEPSFFIAFPQTAGESQKQGEKKMSRFILPNAELYAHQDLRTWAAPKEISPVENFSPSYYSNKRDVEPPYRKDAKKFWDHFMLRKNSASEEVVLPIKTNEMHQETCRTLPFSQSVAHESCEKVIVQNNLCFGKCSSFHVPGPDDRLYTFCSKCLPTKFSMKHLDLNCTSSVPVVKKVMIVEECNCETQKIEDPLLGSRQSDFLGNLPEHN
On to B1, for which the binding entry with GDF-11 [1] and with GDF-11 [2] was “binds” each time.

(Values after patent publication US20090082270A1 (ACCELERON PHARMA, published 2009).)
